Test results taken from patent publication EP0974057B1.
No constants are given. Whether binding was seen depends on the method and setting. A result given as binding can be weak or reduced; the word gives no strength.

Experiments:
[1] = target: hK2 (wild type mature hK2) (human); assay: covalent complex formation, SDS-PAGE and Western blot with HK1G586.1
[2] = target: hK2 (wild type mature hK2) (human); assay: covalent complex formation, Western blot with HK1G586.1, legend of Figure 18
[3] = target: hK2 (wild type mature hK2) (human); assay: hK2 spiked into human serum, Western blot
[4] = target: prostate-specific antigen protein, hK3 (PSA) (human); assay: covalent complex formation, SDS-PAGE and Western blot
[5] = target: prostate-specific antigen protein, hK3 (PSA) (human); assay: protease spiked into human serum, Western blot
[6] = target: hK2 (wild type mature hK2) (human); assay: protease spiked into human serum, Western blot

Measured: binding

B1: α2 macroglobulin (MG) (protein, human, UniProt P01023 24-1474, looked up)
chain: SVSGKPQYMVLVPSLLHTETTEKGCVLLSYLNETVTVSASLESVRGNRSLFTDLEAENDVLHCVAFAVPKSSSNEEVMFLTVQVKGPTQEFKKRTTVMVKNEDSLVFVQTDKSIYKPGQTVKFRVVSMDENFHPLNELIPLVYIQDPKGNRIAQWQSFQLEGGLKQFSFPLSSEPFQGSYKVVVQKKSGGRTEHPFTVEEFVLPKFEVQVTVPKIITILEEEMNVSVCGLYTYGKPVPGHVTVSICRKYSDASDCHGEDSQAFCEKFSGQLNSHGCFYQQVKTKVFQLKRKEYEMKLHTEAQIQEEGTVVELTGRQSSEITRTITKLSFVKVDSHFRQGIPFFGQVRLVDGKGVPIPNKVIFIRGNEANYYSNATTDEHGLVQFSINTTNVMGTSLTVRVNYKDRSPCYGYQWVSEEHEEAHHTAYLVFSPSKSFVHLEPMSHELPCGHTQTVQAHYILNGGTLLGLKKLSFYYLIMAKGGIVRTGTHGLLVKQEDMKGHFSISIPVKSDIAPVARLLIYAVLPTGDVIGDSAKYDVENCLANKVDLSFSPSQSLPASHAHLRVTAAPQSVCALRAVDQSVLLMKPDAELSASSVYNLLPEKDLTGFPGPLNDQDNEDCINRHNVYINGITYTPVSSTNEKDMYSFLEDMGLKAFTNSKIRKPKMCPQLQQYEMHGPEGLRVGFYESDVMGRGHARLVHVEEPHTETVRKYFPETWIWDLVVVNSAGVAEVGVTVPDTITEWKAGAFCLSEDAGLGISSTASLRAFQPFFVELTMPYSVIRGEAFTLKATVLNYLPKCIRVSVQLEASPAFLAVPVEKEQAPHCICANGRQTVSWAVTPKSLGNVNFTVSAEALESQELCGTEVPSVPEHGRKDTVIKPLLVEPEGLEKETTFNSLLCPSGGEVSEELSLKLPPNVVEESARASVSVLGDILGSAMQNTQNLLQMPYGCGEQNMVLFAPNIYVLDYLNETQQLTPEIKSKAIGYLNTGYQRQLNYKHYDGSYSTFGERYGRNQGNTWLTAFVLKTFAQARAYIFIDEAHITQALIWLSQRQKDNGCFRSSGSLLNNAIKGGVEDEVTLSAYITIALLEIPLTVTHPVVRNALFCLESAWKTAQEGDHGSHVYTKALLAYAFALAGNQDKRKEVLKSLNEEAVKKDNSVHWERPQKPKAPVGHFYEPQAPSAEVEMTSYVLLAYLTAQPAPTSEDLTSATNIVKWITKQQNAQGGFSSTQDTVVALHALSKYGAATFTRTGKAAQVTIQSSGTFSSKFQVDNNNRLLLQQVSLPELPGEYSMKVTGEGCVYLQTSLKYNILPEKEEFPFALGVQTLPQTCDEPKAHTSFQISLSVSYTGSRSASNMAIVDVKMVSGFIPLKPTVKMLERSNHVSRTEVSSNHVLIYLDKVSNQTLSLFFTVLQDVPVRDLKPAIVKVYDYYETDEFAIAEYNAPCSKDLGNA
binds: all assays above
